According to the supplement of paper PMC10849652:
The other results are listed elsewhere or left out.

Protein sequences, listed by entry. Tags and fused reporters are not part of them. Lines headed by an entry give the natural chain unless they say otherwise; changes in a name come on top.
UniProt Q9BSF4: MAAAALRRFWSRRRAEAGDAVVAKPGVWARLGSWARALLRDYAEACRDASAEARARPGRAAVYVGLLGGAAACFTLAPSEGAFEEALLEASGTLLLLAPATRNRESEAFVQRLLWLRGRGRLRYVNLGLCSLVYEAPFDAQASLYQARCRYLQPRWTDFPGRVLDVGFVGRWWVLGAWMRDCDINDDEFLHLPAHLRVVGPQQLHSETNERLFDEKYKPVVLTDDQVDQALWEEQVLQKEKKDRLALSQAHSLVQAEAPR
UniProt Q08117: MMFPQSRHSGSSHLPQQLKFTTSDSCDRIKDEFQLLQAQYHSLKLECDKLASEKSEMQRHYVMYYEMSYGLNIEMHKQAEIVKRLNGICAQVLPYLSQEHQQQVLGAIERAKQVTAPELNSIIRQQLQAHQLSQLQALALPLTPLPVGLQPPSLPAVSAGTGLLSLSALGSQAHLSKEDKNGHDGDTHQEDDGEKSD
UniProt O15321, whole entry, looked up: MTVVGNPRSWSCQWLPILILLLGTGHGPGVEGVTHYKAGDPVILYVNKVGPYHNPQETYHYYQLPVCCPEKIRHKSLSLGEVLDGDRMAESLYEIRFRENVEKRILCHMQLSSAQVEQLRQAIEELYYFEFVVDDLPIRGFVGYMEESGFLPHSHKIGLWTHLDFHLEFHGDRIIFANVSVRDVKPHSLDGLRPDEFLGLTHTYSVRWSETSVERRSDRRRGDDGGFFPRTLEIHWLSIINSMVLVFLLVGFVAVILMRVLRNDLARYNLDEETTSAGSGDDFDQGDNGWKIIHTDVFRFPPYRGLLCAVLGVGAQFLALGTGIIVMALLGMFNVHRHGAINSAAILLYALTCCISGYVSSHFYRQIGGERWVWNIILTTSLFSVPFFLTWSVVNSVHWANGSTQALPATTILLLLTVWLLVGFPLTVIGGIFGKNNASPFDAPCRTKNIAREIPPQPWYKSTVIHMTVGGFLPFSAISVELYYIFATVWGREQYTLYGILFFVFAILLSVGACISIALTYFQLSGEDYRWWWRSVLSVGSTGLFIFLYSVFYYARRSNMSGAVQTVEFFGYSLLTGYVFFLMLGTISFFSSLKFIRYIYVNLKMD
UniProt Q13445: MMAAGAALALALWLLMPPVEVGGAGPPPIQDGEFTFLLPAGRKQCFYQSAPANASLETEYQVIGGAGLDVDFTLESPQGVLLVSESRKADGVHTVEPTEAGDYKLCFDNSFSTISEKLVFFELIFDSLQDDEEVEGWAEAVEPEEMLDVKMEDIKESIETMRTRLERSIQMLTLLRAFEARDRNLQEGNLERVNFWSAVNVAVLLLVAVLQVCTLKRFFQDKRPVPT
UniProt Q9UDY2: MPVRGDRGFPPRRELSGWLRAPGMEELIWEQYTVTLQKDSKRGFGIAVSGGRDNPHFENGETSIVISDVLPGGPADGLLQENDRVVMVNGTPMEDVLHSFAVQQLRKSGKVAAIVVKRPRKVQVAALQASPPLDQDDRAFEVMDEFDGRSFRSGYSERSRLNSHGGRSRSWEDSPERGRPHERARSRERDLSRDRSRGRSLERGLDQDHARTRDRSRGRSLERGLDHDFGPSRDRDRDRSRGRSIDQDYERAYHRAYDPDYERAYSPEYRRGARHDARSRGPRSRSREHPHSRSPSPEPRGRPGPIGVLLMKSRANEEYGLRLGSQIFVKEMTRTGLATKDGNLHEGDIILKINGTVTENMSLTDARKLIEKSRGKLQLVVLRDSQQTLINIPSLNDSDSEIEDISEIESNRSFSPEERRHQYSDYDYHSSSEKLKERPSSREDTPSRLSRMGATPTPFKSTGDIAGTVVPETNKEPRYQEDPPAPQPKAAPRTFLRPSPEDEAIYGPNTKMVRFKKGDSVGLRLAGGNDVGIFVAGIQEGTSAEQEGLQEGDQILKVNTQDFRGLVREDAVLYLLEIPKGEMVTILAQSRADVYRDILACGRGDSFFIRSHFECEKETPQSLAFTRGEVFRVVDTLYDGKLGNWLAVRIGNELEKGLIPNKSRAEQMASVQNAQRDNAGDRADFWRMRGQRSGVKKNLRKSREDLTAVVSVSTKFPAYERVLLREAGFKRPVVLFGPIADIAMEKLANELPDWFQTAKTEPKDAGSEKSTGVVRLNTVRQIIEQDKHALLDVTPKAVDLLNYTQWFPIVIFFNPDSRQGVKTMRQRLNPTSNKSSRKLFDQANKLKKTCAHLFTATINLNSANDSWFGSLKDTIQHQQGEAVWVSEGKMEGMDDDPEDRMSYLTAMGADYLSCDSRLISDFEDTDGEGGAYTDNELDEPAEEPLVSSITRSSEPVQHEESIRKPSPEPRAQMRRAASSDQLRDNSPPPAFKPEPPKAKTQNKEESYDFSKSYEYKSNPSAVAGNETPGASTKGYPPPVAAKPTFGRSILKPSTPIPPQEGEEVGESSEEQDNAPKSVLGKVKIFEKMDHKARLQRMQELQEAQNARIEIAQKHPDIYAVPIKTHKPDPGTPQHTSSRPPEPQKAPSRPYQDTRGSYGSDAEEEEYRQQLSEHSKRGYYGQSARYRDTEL
UniProt P01033: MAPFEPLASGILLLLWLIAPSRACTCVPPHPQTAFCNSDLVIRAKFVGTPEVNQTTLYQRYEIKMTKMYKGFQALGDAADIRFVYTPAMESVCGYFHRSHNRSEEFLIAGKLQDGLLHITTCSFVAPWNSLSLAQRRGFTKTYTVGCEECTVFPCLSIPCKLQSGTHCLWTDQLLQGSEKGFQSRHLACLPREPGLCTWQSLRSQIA
UniProt Q12893: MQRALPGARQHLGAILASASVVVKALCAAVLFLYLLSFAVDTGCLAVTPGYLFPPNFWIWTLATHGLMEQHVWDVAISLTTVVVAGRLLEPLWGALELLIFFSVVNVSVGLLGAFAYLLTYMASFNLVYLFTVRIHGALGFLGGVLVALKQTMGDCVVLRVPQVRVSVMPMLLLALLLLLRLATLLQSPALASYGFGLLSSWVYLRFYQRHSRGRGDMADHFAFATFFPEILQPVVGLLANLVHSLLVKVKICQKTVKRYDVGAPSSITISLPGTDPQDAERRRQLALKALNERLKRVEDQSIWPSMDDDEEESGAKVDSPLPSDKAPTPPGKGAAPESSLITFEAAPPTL
UniProt Q5U3C3: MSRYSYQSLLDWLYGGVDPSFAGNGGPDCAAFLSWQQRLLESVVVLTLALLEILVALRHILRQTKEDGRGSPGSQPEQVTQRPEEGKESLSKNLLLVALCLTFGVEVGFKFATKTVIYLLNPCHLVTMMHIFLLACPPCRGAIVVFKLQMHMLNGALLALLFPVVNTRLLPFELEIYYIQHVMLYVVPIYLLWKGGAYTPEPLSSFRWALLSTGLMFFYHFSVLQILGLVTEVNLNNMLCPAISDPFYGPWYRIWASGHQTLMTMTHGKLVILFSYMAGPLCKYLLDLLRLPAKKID
UniProt Q99595: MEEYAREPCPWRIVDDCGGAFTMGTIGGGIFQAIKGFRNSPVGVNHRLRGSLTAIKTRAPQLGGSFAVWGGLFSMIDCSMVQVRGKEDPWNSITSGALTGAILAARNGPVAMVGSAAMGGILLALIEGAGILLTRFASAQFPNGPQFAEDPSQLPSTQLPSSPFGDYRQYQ
UniProt P21980: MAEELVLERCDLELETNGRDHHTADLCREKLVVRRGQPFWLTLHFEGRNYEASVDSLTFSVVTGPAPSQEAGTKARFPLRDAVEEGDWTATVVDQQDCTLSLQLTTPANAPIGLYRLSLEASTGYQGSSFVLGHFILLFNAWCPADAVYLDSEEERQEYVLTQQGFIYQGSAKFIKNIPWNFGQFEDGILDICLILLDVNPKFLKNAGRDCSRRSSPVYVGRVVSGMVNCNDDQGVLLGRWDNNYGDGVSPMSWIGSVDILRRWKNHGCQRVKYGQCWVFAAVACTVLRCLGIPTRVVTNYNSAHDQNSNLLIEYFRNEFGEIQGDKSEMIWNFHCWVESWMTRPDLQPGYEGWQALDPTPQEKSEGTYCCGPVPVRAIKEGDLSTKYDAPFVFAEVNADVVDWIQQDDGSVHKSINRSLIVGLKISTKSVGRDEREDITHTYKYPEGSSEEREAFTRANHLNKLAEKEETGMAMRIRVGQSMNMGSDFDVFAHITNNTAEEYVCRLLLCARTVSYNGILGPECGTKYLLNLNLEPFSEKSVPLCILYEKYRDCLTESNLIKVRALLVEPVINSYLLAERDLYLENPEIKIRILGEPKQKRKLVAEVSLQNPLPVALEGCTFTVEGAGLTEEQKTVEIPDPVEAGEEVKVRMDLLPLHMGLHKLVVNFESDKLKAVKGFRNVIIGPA
UniProt Q04726: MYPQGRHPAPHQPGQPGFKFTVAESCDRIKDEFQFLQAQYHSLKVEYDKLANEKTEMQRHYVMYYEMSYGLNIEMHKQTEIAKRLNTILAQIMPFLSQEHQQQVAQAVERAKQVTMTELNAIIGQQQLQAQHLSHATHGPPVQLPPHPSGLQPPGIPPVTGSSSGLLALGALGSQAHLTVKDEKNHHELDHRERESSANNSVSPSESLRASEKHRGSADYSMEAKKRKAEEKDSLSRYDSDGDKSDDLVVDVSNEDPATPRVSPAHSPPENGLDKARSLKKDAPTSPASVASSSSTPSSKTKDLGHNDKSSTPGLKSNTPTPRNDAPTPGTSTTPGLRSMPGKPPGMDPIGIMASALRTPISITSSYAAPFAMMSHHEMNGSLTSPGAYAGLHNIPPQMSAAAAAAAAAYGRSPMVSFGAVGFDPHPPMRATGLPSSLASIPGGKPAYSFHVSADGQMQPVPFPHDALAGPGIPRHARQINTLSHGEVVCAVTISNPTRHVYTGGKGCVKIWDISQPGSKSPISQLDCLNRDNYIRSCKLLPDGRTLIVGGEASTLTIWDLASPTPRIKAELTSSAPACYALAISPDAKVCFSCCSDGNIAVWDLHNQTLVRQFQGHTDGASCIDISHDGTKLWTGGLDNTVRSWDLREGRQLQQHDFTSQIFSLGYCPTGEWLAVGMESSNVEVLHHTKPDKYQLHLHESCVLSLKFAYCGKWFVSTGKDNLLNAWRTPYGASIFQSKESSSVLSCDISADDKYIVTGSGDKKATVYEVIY
UniProt Q86WV6: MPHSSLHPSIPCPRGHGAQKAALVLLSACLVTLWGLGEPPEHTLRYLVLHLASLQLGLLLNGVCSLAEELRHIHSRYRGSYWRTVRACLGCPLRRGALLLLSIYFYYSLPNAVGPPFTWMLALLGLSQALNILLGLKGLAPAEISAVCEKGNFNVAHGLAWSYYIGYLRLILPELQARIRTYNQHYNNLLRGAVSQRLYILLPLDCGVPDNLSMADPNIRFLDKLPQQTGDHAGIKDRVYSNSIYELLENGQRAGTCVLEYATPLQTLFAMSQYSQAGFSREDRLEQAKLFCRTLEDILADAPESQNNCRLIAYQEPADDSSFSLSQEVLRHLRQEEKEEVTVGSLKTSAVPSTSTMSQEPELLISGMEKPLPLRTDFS
UniProt P04183: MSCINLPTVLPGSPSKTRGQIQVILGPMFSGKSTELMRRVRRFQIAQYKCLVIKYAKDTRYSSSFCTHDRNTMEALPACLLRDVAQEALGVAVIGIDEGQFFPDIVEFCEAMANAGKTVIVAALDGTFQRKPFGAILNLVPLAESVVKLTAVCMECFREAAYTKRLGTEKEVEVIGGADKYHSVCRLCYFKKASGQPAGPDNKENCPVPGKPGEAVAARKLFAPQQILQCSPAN
UniProt P55061, whole entry, looked up: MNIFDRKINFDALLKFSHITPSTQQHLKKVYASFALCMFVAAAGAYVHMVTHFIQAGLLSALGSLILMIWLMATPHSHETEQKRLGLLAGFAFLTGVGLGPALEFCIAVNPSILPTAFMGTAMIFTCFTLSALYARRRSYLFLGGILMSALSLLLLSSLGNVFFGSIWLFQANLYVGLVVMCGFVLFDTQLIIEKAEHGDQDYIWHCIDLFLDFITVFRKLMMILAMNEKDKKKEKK
UniProt Q96CP7: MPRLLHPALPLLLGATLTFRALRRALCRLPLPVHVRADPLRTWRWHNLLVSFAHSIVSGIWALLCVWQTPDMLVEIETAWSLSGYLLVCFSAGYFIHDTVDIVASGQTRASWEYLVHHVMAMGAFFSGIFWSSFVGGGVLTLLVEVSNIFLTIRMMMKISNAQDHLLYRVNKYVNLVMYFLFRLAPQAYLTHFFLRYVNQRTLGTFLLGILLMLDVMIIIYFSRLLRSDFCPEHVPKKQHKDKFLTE
UniProt Q6I9Y2: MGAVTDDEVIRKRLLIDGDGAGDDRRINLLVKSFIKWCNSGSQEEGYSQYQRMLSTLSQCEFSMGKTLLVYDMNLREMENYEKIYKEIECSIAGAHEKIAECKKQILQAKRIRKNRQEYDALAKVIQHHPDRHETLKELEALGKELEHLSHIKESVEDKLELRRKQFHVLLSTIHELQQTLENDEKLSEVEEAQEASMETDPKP

Experiments:
Experiment in all cases: log2 fold change, soluble protein after heating vs DMSO (PISA); higher = thermal stabilisation; K562 lysate, 10 uM; active = over 0.2 and 3.5 SD of the protein, either way, in both replicates (recomputed)
[1] = compound: C#Cc1cccc(Nc2ncnc3cc(OCCOC)c(OCCOC)cc23)c1 [erlotinib]
Summary of the method: (§1)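 Thermal stability, expressed as log-two fold change relative to solvent controls, is given from duplicates. Crude K562 extract in PBS pH 7.4 with 1 mM MgCl2, at 1 mg/mL protein, was treated with 10 μM compound for 30 min and heated in aliquots for 3 min across 48°C-58°C. After pooling, adjustment to 0.5% NP-40 at 4°C and centrifugation at 21,000xg for 90 min, supernatant protein was measured by TMTpro 16plex LC-MS/MS with channel sums equalised.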

[2] = compound: C/C(=N\NC(=O)C1=CC(=CC=C1)S(=O)(=O)N2CCOCC2)/C3=C(C=CC(=C3)Cl)O
Summary of the method: as §1

[3] = compound: C1=CC(=CC=C1C2=NC3=C(N2)C=C(C=C3)C(=O)N)OC4=CC=C(C=C4)Cl
Summary of the method: as §1

[4] = compound: C1=CC2=C(C=CC(=C2)/C=C\3/C(=O)NC(=NCC4=CC=CS4)S3)N=C1
Summary of the method: as §1

[5] = compound: C1=CC2=NC=CN=C2C=C1/C=C/3\C(=O)NC(=O)S3
Summary of the method: as §1

[6] = compound: C1=CC=C(C=C1)C2=NC(=C(N2)C3=CC=NC=C3)C4=CC(=C(C=C4)Cl)O
Summary of the method: as §1

[7] = compound: C1=CC=C2C(=C1)C3=NNC4=CC=CC(=C43)C2=O
Summary of the method: as §1

[8] = compound: C1CCN(C1)C(=O)NC2=CC=CC(=C2)NC3=NC=C(C(=N3)NCCC4=CN=CN4)Br
Summary of the method: as §1

[9] = compound: C1CN(CCC1(CC2=CC=C(C=C2)Cl)N)C3=NC=NC4=C3C=CN4
Summary of the method: as §1

[10] = compound: C1COCCN1CCN2C3=CC=CC=C3N=C2NC(=O)C4=CC(=CC=C4)[N+](=O)[O-] [IRAK-1-4 Inhibitor I]
Summary of the method: as §1

[11] = compound: C=CC(=O)N1CCC[C@@H](n2nc(-c3ccc(Oc4ccccc4)cc3)c3c(N)ncnc32)C1 [ibrutinib]
Summary of the method: as §1

[12] = compound: CC(=O)c1cnc2ccc(-c3cc(Cl)c(O)c(Cl)c3)nc2c1N[C@H]1CC[C@H](CN(C)C)CC1
Summary of the method: as §1

[13] = compound: CC(C)(C)Cn1c(N)nc2ccc(-c3[nH]c(C(C)(C)C)nc3-c3ccc(F)cc3)nc21 [ralimetinib]
Summary of the method: as §1

[14] = compound: CC(C)(O)CC(=O)NCCn1ccc2ncnc(Nc3ccc(Oc4cccc(C(F)(F)F)c4)c(Cl)c3)c21
Summary of the method: as §1

[15] = compound: CC(C)C1=C2N=C(C=C(N2N=C1)NCC3=CC=CC=C3)NCCCCCCN
Summary of the method: as §1

[16] = compound: CC1=C(C(CC(=O)N1)C2=CC=C(C=C2)C(F)(F)F)C(=O)NC3=C(C=C4C(=C3)C=NN4)F
Summary of the method: as §1

[17] = compound: CC1=C(C2=C(C=C1)C(=O)C3=CC=CC=C3N2CCCN)C
Summary of the method: as §1

[18] = compound: CC1=C(C=C(C=C1)NC(=O)C2=CC(=CC=C2)C(C)(C)C#N)NC3=CC4=C(C=C3)N=CN(C4=O)C
Summary of the method: as §1

[19] = compound: CC1=C(C=C(C=C1)NC(=O)C2=CC(=CC=C2)N(C)C)NC(=O)C3=CC=C(C=C3)O
Summary of the method: as §1

[20] = compound: CC1=CC=C(C=C1)SC2=C3C=C(SC3=CN=C2)C(=O)N
Summary of the method: as §1

Measured: log2 fold change

TIMM29 (UniProt Q9BSF4)
inactive: [1] -0.018 | [2] -0.085 | [3] 0.021 | [4] -0.018 | [5] -0.093 | [6] 0.032 | [7] -0.036 | [8] -0.036 | [9] -0.015 | [10] -0.008 | [11] -0.01 | [12] -0.007 | [13] -0.001 | [14] -0.074 | [15] 0.051 | [16] -0.041 | [17] -0.063 | [18] -0.039 | [19] -0.009 | [20] -0.003

TLE5 isoform 2 (UniProt Q08117)
inactive: [1] 0.007 | [2] 0.026 | [3] 0.111 | [4] -0.003 | [5] 0.159 | [6] -0.08 | [7] -0.056 | [8] 0.012 | [9] -0.006 | [10] 0.077 | [11] 0.128 | [12] 0.033 | [13] 0.03 | [14] 0.039 | [15] 0.024 | [16] 0.083 | [17] -0.074 | [18] -0.021 | [19] -0.02 | [20] 0.006

TM9SF1 (UniProt O15321)
inactive: [1] 0.021 | [2] 0.058 | [3] 0.049 | [4] -0.037 | [5] 0.192 | [6] -0.006 | [7] -0.044 | [8] 0.038 | [9] -0.005 | [10] 0.031 | [11] 0.088 | [12] 0.041 | [13] -0.03 | [14] 0.05 | [15] -0.026 | [16] -0.009 | [17] 0.028 | [18] -0.013 | [19] -0.007 | [20] 0.055

TMED1 (UniProt Q13445)
inactive: [1] -0.21 | [2] -0.074 | [3] 0.056 | [4] 0.051 | [5] -0.034 | [6] 0.114 | [7] -0.152 | [8] -0.032 | [9] -0.04 | [10] -0.101 | [11] 0.085 | [12] 0.017 | [13] -0.035 | [14] -0.042 | [15] -0.108 | [16] -0.023 | [17] -0.129 | [18] -0.058 | [19] -0.01 | [20] -0.059

TJP2 isoform 7 (UniProt Q9UDY2)
inactive: [1] 0.004 | [2] -0.007 | [3] 0.021 | [4] -0.018 | [5] -0.054 | [6] -0.007 | [7] -0.033 | [8] -0.038 | [9] 0.005 | [10] -0.005 | [11] 0.018 | [12] -0.013 | [13] 0.023 | [14] -0.026 | [15] 0.017 | [16] 0.017 | [17] -0.061 | [18] -0.001 | [19] 0.018 | [20] 0.012

TIMP1 (UniProt P01033)
inactive: [1] 0.005 | [2] -0.03 | [3] 0.013 | [4] 0.019 | [5] -0.01 | [6] -0.009 | [7] -0.048 | [8] -0.025 | [9] 0.032 | [10] 0.028 | [11] -0.016 | [12] -0.074 | [13] -0.006 | [14] -0.02 | [15] 0.03 | [16] 0.106 | [17] -0.039 | [18] 0.077 | [19] -0.005 | [20] -0.063

TMEM115 (UniProt Q12893)
inactive: [1] -0.015 | [2] 0 | [3] -0.053 | [4] 0.04 | [5] -0.02 | [6] -0.021 | [7] 0.044 | [8] -0.01 | [9] 0.023 | [10] 0.056 | [11] 0.062 | [12] -0.022 | [13] -0.003 | [14] -0.004 | [15] -0.041 | [16] -0.01 | [17] -0.004 | [18] 0.056 | [19] 0.05 | [20] 0.087

TMEM164 (UniProt Q5U3C3)
inactive: [1] 0.067 | [2] -0.141 | [3] -0.009 | [4] -0.093 | [5] 0.104 | [6] -0.056 | [7] -0.211 | [8] -0.057 | [9] 0.153 | [10] 0.094 | [11] 0.053 | [12] -0.066 | [13] -0.171 | [14] -0.252 | [15] -0.035 | [16] -0.184 | [17] -0.153 | [18] 0.255 | [19] 0.027 | [20] -0.061

TIMM17A (UniProt Q99595)
inactive: [1] 0.074 | [2] -0.107 | [3] 0.069 | [4] -0.039 | [5] -0.01 | [6] -0.065 | [7] -0.004 | [8] -0.023 | [9] 0.068 | [10] 0.102 | [11] 0.022 | [12] -0.011 | [13] -0.038 | [14] -0.134 | [15] -0.064 | [16] 0.001 | [17] 0.002 | [18] 0.06 | [19] -0.011 | [20] -0.011

TGM2 (UniProt P21980)
inactive: [1] 0.026 | [2] 0.004 | [3] 0.015 | [4] 0.007 | [5] 0.005 | [6] 0.002 | [7] -0.028 | [8] 0.002 | [9] 0.001 | [10] -0.015 | [11] -0.037 | [12] -0.007 | [13] 0.008 | [14] -0.009 | [15] 0.012 | [16] -0.025 | [17] 0.003 | [18] 0.008 | [19] 0.035 | [20] 0.004

TLE3 isoform 4 (UniProt Q04726)
inactive: [1] 0.005 | [2] -0.025 | [3] 0.03 | [4] -0.012 | [5] 0 | [6] 0.016 | [7] -0.002 | [8] -0.006 | [9] 0.029 | [10] -0.016 | [11] -0.002 | [12] -0.01 | [13] 0.003 | [14] -0.005 | [15] 0 | [16] -0.023 | [17] 0.012 | [18] -0.016 | [19] 0.003 | [20] -0.022

TMEM173 (UniProt Q86WV6)
inactive: [1] -0.005 | [2] 0.028 | [3] -0.061 | [4] 0.011 | [5] -0.004 | [6] -0.136 | [7] -0.077 | [8] 0.001 | [9] -0.024 | [10] 0.014 | [11] 0.021 | [12] -0.006 | [13] 0.09 | [14] -0.003 | [15] 0 | [16] -0.198 | [17] 0.013 | [18] 0.023 | [19] 0.04 | [20] 0.062

TK1 (UniProt P04183)
inactive: [1] 0.003 | [2] -0.112 | [3] 0.036 | [4] -0.001 | [5] 0.028 | [6] -0.003 | [7] 0.021 | [8] 0.013 | [9] 0.017 | [10] 0.008 | [11] 0.004 | [12] -0.004 | [13] 0.023 | [14] -0.022 | [15] -0.029 | [16] 0 | [17] 0.006 | [18] 0.046 | [19] -0.014 | [20] -0.006

TMBIM6 isoform 2 (UniProt P55061)
inactive: [1] -0.009 | [2] 0.054 | [3] -0.103 | [4] -0.09 | [5] 0.017 | [6] 0.011 | [7] -0.014 | [8] -0.032 | [9] -0.002 | [10] 0.066 | [11] -0.001 | [12] -0.011 | [13] -0.002 | [14] -0.027 | [15] 0 | [16] -0.026 | [17] -0.02 | [18] 0.011 | [19] -0.028 | [20] -0.017

Pulled one by one from above (2):
TLE5 isoform 2 (UniProt Q08117)
inactive: [1] 0.007 | [2] 0.026 | [3] 0.111 | [4] -0.003 | [5] 0.159 | [6] -0.08 | [7] -0.056 | [8] 0.012 | [9] -0.006 | [10] 0.077 | [11] 0.128 | [12] 0.033 | [13] 0.03 | [14] 0.039 | [15] 0.024 | [16] 0.083 | [17] -0.074 | [18] -0.021 | [19] -0.02 | [20] 0.006

TMEM115 (UniProt Q12893)
inactive: [1] -0.015 | [2] 0 | [3] -0.053 | [4] 0.04 | [5] -0.02 | [6] -0.021 | [7] 0.044 | [8] -0.01 | [9] 0.023 | [10] 0.056 | [11] 0.062 | [12] -0.022 | [13] -0.003 | [14] -0.004 | [15] -0.041 | [16] -0.01 | [17] -0.004 | [18] 0.056 | [19] 0.05 | [20] 0.087

(next part)

TLCD1 (UniProt Q96CP7)
inactive: [1] -0.048 | [2] -0.1 | [3] -0.13 | [4] 0.011 | [5] 0.148 | [6] -0.078 | [7] 0.022 | [8] 0.006 | [9] 0.012 | [10] 0.319 | [11] -0.228 | [12] 0.026 | [13] 0.097 | [14] -0.074 | [15] -0.19 | [16] -0.1 | [17] 0.036 | [18] -0.135 | [19] 0 | [20] -0.079

THOC7 (UniProt Q6I9Y2)
inactive: [1] -0.021 | [2] -0.041 | [3] -0.044 | [4] 0.015 | [5] 0.021 | [6] -0.01 | [7] 0.029 | [8] 0.051 | [9] -0.004 | [10] 0.013 | [11] 0.062 | [12] -0.023 | [13] 0.019 | [14] -0.005 | [15] 0.031 | [16] 0.014 | [17] 0.006 | [18] -0.004 | [19] 0.004 | [20] -0.022
